Assay results: the supplement of paper PMC11732987, “Enantioselective OTUD7B fragment discovery through chemoproteomics screening and high-throughput optimisation” (Communications Chemistry, 2025)
The other results are listed elsewhere or left out. The data scatter; read single values as rough.

The chains behind the UniProt entries cited, without tags or fusion partners. Where a name states a change or a piece, a line headed by the entry shows the natural chain unless it says otherwise. Residues count along the entry.
UniProt Q9H1K1: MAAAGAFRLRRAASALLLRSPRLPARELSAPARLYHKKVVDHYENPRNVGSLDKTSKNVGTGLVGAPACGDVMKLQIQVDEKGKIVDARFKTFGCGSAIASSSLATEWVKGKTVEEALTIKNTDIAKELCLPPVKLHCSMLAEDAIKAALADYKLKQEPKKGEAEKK
UniProt Q9Y4C1: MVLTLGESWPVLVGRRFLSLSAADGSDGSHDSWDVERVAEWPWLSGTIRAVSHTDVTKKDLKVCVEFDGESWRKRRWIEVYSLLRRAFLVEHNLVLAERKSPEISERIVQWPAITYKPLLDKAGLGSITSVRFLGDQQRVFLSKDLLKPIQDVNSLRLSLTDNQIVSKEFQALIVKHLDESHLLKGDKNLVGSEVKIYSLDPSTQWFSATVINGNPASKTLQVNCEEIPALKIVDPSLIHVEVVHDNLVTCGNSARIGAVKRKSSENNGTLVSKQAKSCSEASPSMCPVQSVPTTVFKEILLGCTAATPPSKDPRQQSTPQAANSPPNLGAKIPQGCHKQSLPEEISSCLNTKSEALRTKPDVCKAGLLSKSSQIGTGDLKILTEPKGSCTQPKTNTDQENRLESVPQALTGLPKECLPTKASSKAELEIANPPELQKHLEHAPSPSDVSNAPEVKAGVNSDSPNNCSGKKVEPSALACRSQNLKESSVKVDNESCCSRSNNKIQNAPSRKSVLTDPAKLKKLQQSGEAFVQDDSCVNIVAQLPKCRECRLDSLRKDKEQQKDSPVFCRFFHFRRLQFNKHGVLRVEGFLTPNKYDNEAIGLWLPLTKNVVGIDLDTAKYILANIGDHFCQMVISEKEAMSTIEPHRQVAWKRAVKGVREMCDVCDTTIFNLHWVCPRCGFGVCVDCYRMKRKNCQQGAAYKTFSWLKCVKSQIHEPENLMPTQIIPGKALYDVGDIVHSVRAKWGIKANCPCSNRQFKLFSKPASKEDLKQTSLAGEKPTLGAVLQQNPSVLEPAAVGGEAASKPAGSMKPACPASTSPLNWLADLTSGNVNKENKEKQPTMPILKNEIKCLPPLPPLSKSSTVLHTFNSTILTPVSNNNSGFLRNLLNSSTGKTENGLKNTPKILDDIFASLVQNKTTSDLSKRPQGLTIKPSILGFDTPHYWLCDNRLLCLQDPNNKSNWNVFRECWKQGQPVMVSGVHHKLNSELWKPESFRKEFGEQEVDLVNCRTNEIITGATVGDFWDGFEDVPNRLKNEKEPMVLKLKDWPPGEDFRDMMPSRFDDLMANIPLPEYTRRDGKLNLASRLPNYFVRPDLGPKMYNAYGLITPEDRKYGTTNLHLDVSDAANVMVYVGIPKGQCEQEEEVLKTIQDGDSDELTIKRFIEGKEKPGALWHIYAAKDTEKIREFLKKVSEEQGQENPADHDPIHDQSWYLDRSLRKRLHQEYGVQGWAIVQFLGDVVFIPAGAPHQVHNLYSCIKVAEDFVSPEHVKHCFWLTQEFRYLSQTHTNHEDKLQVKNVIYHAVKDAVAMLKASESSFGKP
UniProt Q86Y91: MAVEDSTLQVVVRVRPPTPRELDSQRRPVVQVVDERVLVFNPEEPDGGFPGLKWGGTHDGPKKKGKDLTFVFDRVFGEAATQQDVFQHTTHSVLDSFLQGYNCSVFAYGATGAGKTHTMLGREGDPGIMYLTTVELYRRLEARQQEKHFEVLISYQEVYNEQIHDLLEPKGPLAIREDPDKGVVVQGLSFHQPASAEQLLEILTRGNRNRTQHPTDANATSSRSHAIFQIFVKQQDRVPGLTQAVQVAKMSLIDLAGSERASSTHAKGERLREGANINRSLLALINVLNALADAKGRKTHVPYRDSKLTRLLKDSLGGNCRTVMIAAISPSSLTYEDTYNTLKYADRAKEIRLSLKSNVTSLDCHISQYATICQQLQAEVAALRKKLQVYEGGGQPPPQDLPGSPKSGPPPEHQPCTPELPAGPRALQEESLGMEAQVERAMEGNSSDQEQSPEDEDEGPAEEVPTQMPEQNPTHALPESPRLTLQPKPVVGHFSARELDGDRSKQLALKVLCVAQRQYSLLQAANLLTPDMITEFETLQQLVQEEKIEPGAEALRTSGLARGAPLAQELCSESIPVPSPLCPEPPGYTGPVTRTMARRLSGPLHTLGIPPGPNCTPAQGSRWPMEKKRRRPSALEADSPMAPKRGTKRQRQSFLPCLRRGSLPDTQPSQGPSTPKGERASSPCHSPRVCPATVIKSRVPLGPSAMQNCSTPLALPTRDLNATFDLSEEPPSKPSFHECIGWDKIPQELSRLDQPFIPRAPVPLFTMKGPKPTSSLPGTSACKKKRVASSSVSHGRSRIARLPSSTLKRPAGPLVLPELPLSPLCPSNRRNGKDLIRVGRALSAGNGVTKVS
UniProt O95235: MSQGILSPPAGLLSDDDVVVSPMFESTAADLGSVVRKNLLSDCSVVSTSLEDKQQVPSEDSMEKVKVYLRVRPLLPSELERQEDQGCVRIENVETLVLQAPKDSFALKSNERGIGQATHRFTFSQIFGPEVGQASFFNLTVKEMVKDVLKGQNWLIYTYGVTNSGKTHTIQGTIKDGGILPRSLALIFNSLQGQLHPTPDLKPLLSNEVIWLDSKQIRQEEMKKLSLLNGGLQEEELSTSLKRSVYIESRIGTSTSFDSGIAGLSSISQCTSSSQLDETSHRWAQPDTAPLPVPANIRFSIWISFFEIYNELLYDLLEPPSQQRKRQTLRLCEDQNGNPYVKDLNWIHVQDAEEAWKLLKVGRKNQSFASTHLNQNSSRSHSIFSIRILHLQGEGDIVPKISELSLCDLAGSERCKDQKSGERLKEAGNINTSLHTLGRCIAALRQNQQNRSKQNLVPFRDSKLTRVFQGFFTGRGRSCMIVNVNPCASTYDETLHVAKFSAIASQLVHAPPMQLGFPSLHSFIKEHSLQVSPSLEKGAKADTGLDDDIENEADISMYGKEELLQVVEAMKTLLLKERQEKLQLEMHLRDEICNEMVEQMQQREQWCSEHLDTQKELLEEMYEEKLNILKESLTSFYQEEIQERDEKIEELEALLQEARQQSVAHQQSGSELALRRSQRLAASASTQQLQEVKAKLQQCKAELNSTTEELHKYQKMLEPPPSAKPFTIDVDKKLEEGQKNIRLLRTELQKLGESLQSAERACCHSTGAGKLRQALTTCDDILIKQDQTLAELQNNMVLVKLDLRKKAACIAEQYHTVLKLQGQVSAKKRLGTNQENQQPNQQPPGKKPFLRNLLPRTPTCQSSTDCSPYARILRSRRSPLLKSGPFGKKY
UniProt Q7Z5Y7: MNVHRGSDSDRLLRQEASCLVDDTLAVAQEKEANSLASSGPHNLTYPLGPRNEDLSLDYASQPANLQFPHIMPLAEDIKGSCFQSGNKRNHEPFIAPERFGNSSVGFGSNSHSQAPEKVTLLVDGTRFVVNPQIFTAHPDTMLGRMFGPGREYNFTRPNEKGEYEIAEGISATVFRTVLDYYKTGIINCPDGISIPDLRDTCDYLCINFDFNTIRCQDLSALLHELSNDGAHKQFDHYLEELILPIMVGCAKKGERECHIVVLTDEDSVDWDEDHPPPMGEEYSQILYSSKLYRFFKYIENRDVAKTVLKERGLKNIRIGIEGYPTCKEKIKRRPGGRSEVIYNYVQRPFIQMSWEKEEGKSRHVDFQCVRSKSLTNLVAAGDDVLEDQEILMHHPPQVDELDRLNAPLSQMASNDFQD
UniProt Q9Y597: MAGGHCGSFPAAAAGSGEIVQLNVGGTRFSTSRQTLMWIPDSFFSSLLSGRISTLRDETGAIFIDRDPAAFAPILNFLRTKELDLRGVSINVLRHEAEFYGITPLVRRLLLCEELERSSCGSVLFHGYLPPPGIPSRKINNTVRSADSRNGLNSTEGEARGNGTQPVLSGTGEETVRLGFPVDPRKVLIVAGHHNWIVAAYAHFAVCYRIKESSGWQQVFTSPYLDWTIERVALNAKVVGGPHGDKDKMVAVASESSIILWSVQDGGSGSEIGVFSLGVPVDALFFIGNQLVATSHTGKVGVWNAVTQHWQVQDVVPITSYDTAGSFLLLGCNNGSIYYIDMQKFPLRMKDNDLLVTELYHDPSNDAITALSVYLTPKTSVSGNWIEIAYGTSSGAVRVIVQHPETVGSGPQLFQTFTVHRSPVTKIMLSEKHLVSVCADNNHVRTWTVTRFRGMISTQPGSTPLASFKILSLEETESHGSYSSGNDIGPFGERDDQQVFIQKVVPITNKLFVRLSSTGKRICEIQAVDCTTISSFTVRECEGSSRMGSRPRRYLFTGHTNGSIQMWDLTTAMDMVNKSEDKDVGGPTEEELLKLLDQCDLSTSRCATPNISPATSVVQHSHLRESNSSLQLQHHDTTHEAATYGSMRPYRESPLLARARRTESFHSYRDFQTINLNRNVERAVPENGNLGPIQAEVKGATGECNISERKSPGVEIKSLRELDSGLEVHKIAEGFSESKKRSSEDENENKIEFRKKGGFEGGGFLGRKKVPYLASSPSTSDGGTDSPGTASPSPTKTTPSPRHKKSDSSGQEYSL
UniProt Q9UGL1: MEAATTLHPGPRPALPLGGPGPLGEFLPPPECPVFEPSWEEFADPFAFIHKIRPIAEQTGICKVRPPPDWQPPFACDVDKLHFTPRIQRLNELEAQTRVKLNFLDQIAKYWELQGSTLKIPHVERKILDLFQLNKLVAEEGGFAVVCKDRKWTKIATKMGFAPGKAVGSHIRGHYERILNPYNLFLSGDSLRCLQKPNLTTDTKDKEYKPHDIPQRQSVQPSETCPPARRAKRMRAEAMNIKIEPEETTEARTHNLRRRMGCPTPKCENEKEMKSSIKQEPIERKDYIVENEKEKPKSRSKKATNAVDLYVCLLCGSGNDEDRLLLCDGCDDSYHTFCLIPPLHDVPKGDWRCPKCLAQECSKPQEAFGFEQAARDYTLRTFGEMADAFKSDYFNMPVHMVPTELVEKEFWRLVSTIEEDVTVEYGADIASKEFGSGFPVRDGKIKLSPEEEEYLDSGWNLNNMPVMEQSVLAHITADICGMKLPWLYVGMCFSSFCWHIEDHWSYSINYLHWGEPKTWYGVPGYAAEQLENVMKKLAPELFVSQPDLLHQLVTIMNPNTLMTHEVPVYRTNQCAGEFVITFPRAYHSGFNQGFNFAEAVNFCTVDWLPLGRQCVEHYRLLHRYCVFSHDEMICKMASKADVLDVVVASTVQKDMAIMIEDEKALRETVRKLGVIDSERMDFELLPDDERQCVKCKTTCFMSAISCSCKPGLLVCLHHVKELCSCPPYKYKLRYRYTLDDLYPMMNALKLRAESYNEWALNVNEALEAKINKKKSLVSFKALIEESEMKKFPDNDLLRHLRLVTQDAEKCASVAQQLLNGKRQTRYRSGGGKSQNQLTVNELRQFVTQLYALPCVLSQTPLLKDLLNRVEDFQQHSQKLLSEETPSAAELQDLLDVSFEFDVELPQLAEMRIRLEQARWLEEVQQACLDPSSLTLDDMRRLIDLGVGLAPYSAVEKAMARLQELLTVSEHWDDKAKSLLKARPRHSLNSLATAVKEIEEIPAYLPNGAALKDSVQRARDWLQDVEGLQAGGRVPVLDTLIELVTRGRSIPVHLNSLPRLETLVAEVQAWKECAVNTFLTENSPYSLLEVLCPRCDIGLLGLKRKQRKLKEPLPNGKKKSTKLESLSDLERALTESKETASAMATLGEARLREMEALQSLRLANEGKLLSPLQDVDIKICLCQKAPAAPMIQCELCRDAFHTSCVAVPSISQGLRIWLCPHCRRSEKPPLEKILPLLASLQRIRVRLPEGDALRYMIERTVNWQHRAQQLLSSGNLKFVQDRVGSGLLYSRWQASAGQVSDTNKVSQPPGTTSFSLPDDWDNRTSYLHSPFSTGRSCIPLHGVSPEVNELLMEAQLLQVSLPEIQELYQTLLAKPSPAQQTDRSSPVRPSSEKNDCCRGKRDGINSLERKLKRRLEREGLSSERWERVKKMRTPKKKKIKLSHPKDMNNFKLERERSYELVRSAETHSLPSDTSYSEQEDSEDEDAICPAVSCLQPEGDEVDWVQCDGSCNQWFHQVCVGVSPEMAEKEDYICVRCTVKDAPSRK
UniProt Q9H9V9, 86-107: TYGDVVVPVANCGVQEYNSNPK

Each target was assayed with ClCC(=O)N[C@H]1CCCc2ccccc12 (assay: log2 mean competition ratio of IA-DTB cysteine labelling (DMSO/compound) (log2 ratio); higher = stronger cysteine engagement by compound). Conditions: 50 µM; treatment time: 4 h; cell line lysate: HEK293T.
Experimental: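 IA-DTB competitive cysteine chemoproteomics in HEK293T RIPA lysate. Lysates were treated with compound 29 or 30 at 50 or 200 µM for 4 h, then IA-DTB (500 µM, 1 h), trypsin-digested, NeutrAvidin-enriched and analysed by diaPASEF. Competition ratio = intensity DMSO / intensity compound (n=4 treated, n=64 DMSO); binding: mean log2 CR ≥ 1 and p ≤ 0.05 plus QC filters. Target is the cysteine site.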
For IRS4 C381, the “log2 mean competition ratio” value was 0.509. With ISCU C130 (UniProt Q9H1K1) the “log2 mean competition ratio” value was 0.759. KDM3A C349 (UniProt Q9Y4C1) was tested, and the “log2 mean competition ratio” value was -0.177. In the case of KIF18B C513 (UniProt Q86Y91), the “log2 mean competition ratio” value was 0.631. With KDM1B C331 (UniProt Q8NB78) the “log2 mean competition ratio” value was 0.237. For KDM7A C492, the “log2 mean competition ratio” value was -0.0933. For ITPR1 C1197 (UniProt Q14643), the “log2 mean competition ratio” value was -0.626. KDM5C C327 (UniProt P41229) was tested, and the “log2 mean competition ratio” value was -0.0733. KIF20A C332 (UniProt O95235) was tested, and the “log2 mean competition ratio” value was -0.258. KIF20A C407 (UniProt O95235) was tested, and the “log2 mean competition ratio” value was -0.285. KIAA1671 C554 was tested, and the “log2 mean competition ratio” value was 0.208. In the case of KCTD20 C369 (UniProt Q7Z5Y7), the “log2 mean competition ratio” value was 0.0325. With KIF4A C1171 (UniProt O95239) the “log2 mean competition ratio” value was 0.298. For JARID2 C1210 (UniProt Q92833), the “log2 mean competition ratio” value was -0.167. In the case of ISCU C69 (UniProt Q9H1K1), the “log2 mean competition ratio” value was 0.611. For KCTD3 C599 (UniProt Q9Y597), the “log2 mean competition ratio” value was -0.317. In the case of KIAA1107 C515, the “log2 mean competition ratio” value was -0.014. With KDM5B C225 (UniProt Q9UGL1) the “log2 mean competition ratio” value was -0.303. In the case of KANK1 C1072 (UniProt Q14678), the “log2 mean competition ratio” value was -1.27. JMJD4 C143 (UniProt Q9H9V9) was tested, and the “log2 mean competition ratio” value was -0.108.

Same assay, conditions: 200 µM; treatment time: 4 h; cell line lysate: HEK293T
IRS4 C381 was tested, and the “log2 mean competition ratio” value was 0.00325. ISCU C130 (UniProt Q9H1K1) was tested, and the “log2 mean competition ratio” value was 0.0931. With KDM3A C349 (UniProt Q9Y4C1) the “log2 mean competition ratio” value was 0.362. In the case of KIF18B C513 (UniProt Q86Y91), the “log2 mean competition ratio” value was 0.072. In the case of KDM1B C331 (UniProt Q8NB78), the “log2 mean competition ratio” value was -0.235. KDM7A C492 was tested, and the “log2 mean competition ratio” value was -0.053. In the case of ITPR1 C1197 (UniProt Q14643), the “log2 mean competition ratio” value was 0.065. In the case of KDM5C C327 (UniProt P41229), the “log2 mean competition ratio” value was 0.0933. KIF20A C332 (UniProt O95235) was tested, and the “log2 mean competition ratio” value was 0.0183. In the case of KIF20A C407 (UniProt O95235), the “log2 mean competition ratio” value was 0.0876. With KIAA1671 C554 the “log2 mean competition ratio” value was 0.218. KCTD20 C369 (UniProt Q7Z5Y7) was tested, and the “log2 mean competition ratio” value was 0.119. For KIF4A C1171 (UniProt O95239), the “log2 mean competition ratio” value was 0.103. With JARID2 C1210 (UniProt Q92833) the “log2 mean competition ratio” value was 0.0139. In the case of ISCU C69 (UniProt Q9H1K1), the “log2 mean competition ratio” value was -0.218. With KCTD3 C599 (UniProt Q9Y597) the “log2 mean competition ratio” value was 0.109. KIAA1107 C515 was tested, and the “log2 mean competition ratio” value was 0.103. With KDM5B C225 (UniProt Q9UGL1) the “log2 mean competition ratio” value was 0.182. With KANK1 C1072 (UniProt Q14678) the “log2 mean competition ratio” value was -0.233. In the case of JMJD4 C143 (UniProt Q9H9V9), the “log2 mean competition ratio” value was -0.142.
